PubChem BioAssay AID1259308 – NCATS, 2017
In all, the deposit lists about 59,000 reagents; this is an unselected part. In the full data, about 1,510 (2.6%) got an active call. 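Calls use total luciferase alone and ignore viability, so some active siRNAs may act by altering cell number.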 A number with no mark means an inactive call. The numbers tell different reagents against one gene apart. No sequences are given here.

Test: 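Knock-downs that increase output of a recombinant reporter protein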 (primary screen)
System: human HEK293 embryonic kidney cells stably expressing firefly luciferase (HEK-CMV-Luc2-Hygro)
Knock-down reagent: single siRNA against human genes, 0.8 pmol siRNA per well
Time to read-out: 72 h
Read-out: 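Luciferase light (ONE-Glo) measured on one replicate plate set and viability (CellTiter-Glo) on the other, scaled to a negative control siRNA, with robust z-scores and luciferase per cell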
Direction: total luciferase, z-score and total luciferase, % of control: higher = more reporter protein produced; luciferase per cell, z-score: higher = more reporter output per viable cell; viable cells, % of control: higher = more viable cells
Hit rule: 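An siRNA counts as active if its total luciferase robust z-score exceeds 3; genes with two or more such siRNAs out of three were retested with fresh siRNAs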
Meaning of the calls: active = raised luciferase; inactive = no rise

gene | reagent no. | total luciferase, z-score | total luciferase, % of control | luciferase per cell, z-score | viable cells, % of control
SYT12 (synaptotagmin 12) | 1 | 1.5 | 112 | 1.39 | 86.6
SYT12 (synaptotagmin 12) | 2 | -0.453 | 72.9 | 0.368 | 73.9
SYT12 (synaptotagmin 12) | 3 | 0.576 | 93.3 | 1.23 | 75.5
OR52M1 (olfactory receptor family 52 subfamily M member 1) | 1 | -0.685 | 68.3 | -0.765 | 93.3
OR52M1 (olfactory receptor family 52 subfamily M member 1) | 2 | 2.64 | 134 | 3.03 | 67.6
OR52M1 (olfactory receptor family 52 subfamily M member 1) | 3 | -0.658 | 68.8 | -0.465 | 86.9
ADCY7 (adenylate cyclase 7) | 1 | 2.27 | 127 | 1.89 | 86.2
ADCY7 (adenylate cyclase 7) | 2 | -1.54 | 51.2 | -1.48 | 84.3
ADCY7 (adenylate cyclase 7) | 3 | -0.361 | 74.7 | -0.422 | 93.3
B3GNT4 | 1 | -0.302 | 75.9 | -0.552 | 98
B3GNT4 | 2 | 1.29 | 108 | 0.573 | 103
B3GNT4 | 3 | -2.18 | 38.5 | -1.25 | 59.7
CYP2W1 (cytochrome P450 family 2 subfamily W member 1) | 1 | -1.24 | 57.2 | -0.919 | 81.5
CYP2W1 (cytochrome P450 family 2 subfamily W member 1) | 2 | -1.3 | 56 | -1.21 | 86.2
CYP2W1 (cytochrome P450 family 2 subfamily W member 1) | 3 | -0.829 | 65.4 | -1.19 | 100

Continued (4 carried over from the part before).
gene | reagent no. | total luciferase, z-score | total luciferase, % of control | luciferase per cell, z-score | viable cells, % of control
B3GNT4 | 3 | -2.18 | 38.5 | -1.25 | 59.7
CYP2W1 (cytochrome P450 family 2 subfamily W member 1) | 1 | -1.24 | 57.2 | -0.919 | 81.5
CYP2W1 (cytochrome P450 family 2 subfamily W member 1) | 2 | -1.3 | 56 | -1.21 | 86.2
CYP2W1 (cytochrome P450 family 2 subfamily W member 1) | 3 | -0.829 | 65.4 | -1.19 | 100
DSCAM (DS cell adhesion molecule) | 1 | -0.25 | 76.9 | -1.05 | 113
DSCAM (DS cell adhesion molecule) | 2 | -0.416 | 73.6 | -0.849 | 103
DSCAM (DS cell adhesion molecule) | 3 | -1.06 | 60.7 | -1.19 | 92.8
CREB3 (cAMP responsive element binding protein 3) | 1 | 2.26 | 127 | 1.64 | 92.2
CREB3 (cAMP responsive element binding protein 3) | 2 | 1.43 | 110 | 1.99 | 73
CREB3 (cAMP responsive element binding protein 3) | 3 | -0.382 | 74.3 | -0.792 | 102
FGD3 (FYVE, RhoGEF and PH domain containing 3) | 1 | -0.218 | 77.6 | 0.48 | 76.4
FGD3 (FYVE, RhoGEF and PH domain containing 3) | 2 | 0.965 | 101 | 0.357 | 103
FGD3 (FYVE, RhoGEF and PH domain containing 3) | 3 | -0.223 | 77.4 | -0.644 | 103
IAPP (islet amyloid polypeptide) | 1 | -0.404 | 73.8 | -0.342 | 90.3
IAPP (islet amyloid polypeptide) | 2 | -1.61 | 49.9 | -1.08 | 74.2
IAPP (islet amyloid polypeptide) | 3 | -0.674 | 68.5 | -0.938 | 97.9
ICE2 (interactor of little elongation complex ELL subunit 2) | 1 | 1.15 | 105 | 0.779 | 95.3
ICE2 (interactor of little elongation complex ELL subunit 2) | 2 | 0.856 | 98.9 | 0.652 | 93.1
ICE2 (interactor of little elongation complex ELL subunit 2) | 3 | -0.454 | 72.9 | 0.949 | 63.4
RHBDD3 (rhomboid domain containing 3) | 1 | -0.404 | 73.8 | -0.656 | 98.1
RHBDD3 (rhomboid domain containing 3) | 2 | 1.3 | 108 | 2.14 | 68.4
RHBDD3 (rhomboid domain containing 3) | 3 | 1.06 | 103 | 0.157 | 110
CP (ceruloplasmin) | 1 | -0.425 | 73.4 | 1.12 | 61.1
CP (ceruloplasmin) | 2 | 0.902 | 99.8 | 0.425 | 99.8
CP (ceruloplasmin) | 3 | -0.786 | 66.2 | -1.96 | 124
CLMN (calmin) | 1 | 1.71 | 116 | 2.5 | 66.9
CLMN (calmin) | 2 | -0.242 | 77.1 | -0.427 | 96.4
CLMN (calmin) | 3 | -0.207 | 77.8 | 0.117 | 84.3
